# Assay results reported in PubChem BioAssay (NCATS).
# Inconclusive means that the source gave no clear call. Such entries were picked first, then a sample of the others. Potencies of inconclusive entries are doubtful fits and often do not repeat. The source made the active and inactive calls. Calls follow the shape of the dose curve; as a rule, active = well fitted cell-killing curve with a large enough effect; inconclusive = small, poorly fitted or top-dose-only effect, or effect the other way; inactive = no such curve, though single readings can be large or run the other way.
# Assay: Quantitative High-Throughput drug screen in 47 multiple myeloma cell lines against the NCATS MIPE library collection: FR4_PLB cell viability assay (AID 1918924; also: nearly all actives have a fitted effect of over 35% in size)
# Settings: FR4_PLB myeloma cells viability, CellTiter-Glo ATP, 48 h; series mostly up to 45.8 µM; viability (% of DMSO control): at the top concentration
# Source text: PI: Beverly A. Mock Ph.D.
# Laboratory of Cancer Biology and Genetics,
# Center for Cancer Research, National Cancer Institute,
# National Institute of Health, Bethesda, Maryland
# Drug resistance and disease progression are common in multiple myeloma (MM) patients, underscoring the need for new therapeutic combinations. […] We hypothesized that effective combinations would reduce MYC expression and enhance p16 activity. […] These preclinical data identify potentially useful drug combinations for evaluation in drug-resistant MM and reveal potential mechanisms of combined drug sensitivity.
# Described herein is the primary MIPE qHTS used to cherrypick compounds. Validated compounds were then further tested for potential synergistic activiy.
# [1] Peat TJ, Gaikwad SM, Dubois W, Gyabaah-Kessie N, Zhang S, Gorjifard S, Phyo Z, Andres M, Hughitt VK, Simpson RM, Miller MA, Girvin AT, Taylor A, Williams D, D'Antonio N, Zhang Y, Rajagopalan A, Flietner E, Wilson K, Zhang X, Shinn P, Klumpp-Thomas C, McKnight C, Itkin Z, Chen L, Kazandijian D, Zhang J, Michalowski AM, Simmons JK, Keats J, Thomas CJ, Mock BA. Drug combinations identified by high-throughput screening promote cell cycle transition and upregulate Smad pathways in myeloma. Cancer Lett. 2023 Aug 1;568:216284. doi: 10.1016/j.canlet.2023.216284. Epub 2023 Jun 24. PMID: 37356470; PMCID: PMC10408729.
# SEQUENCE No. (e.g., 1, 2, 3, etc.); […] (e.g., Cells, Incubation, Reagent, etc.); VALUE and DESCRIPTION.
# 1; Cells; 5 uL; white, solid bottom 1536-well Greiner assay plate.
# 2; Compounds; 23 nL; Kalypsis pin tool (Wako USA) equipped with a 1536-well pin head to transfer to the assay plates.
# 3; Incubation; 48 hours; 37C incubation.
# 4; Reagent;5uL; CellTiter Glo (Promega).
# 5; Detector; 425V; Luminescence; Viewlux PerkinElmer.
# NOTES (numbers refer to Sequence numbers above)
# 1. The cell-based screening methods employed in this study were like those previously published. Briefly, the corresponding myeloma cell lines were screened in 1,536-well plates with 500 cells, 5-uL per well for inhibition of cell viability (assessed by measuring ATP levels with CellTiterGlo).
# 2. NCATS MIPE 4.0 library of approved and investigational drugs were added using the Kalypsis pin tool. Wells treated with DMSO only for 100% viability and media only wells for 0% viability were used as controls.
# 3. The assay plates were covered and incubated for 48 hours in a 37C, 5% CO2 incubator with controlled humidity.
# 4. After 48 hours, CellTilter-GloTM luminescent substrate mix (Promega) reagent was added to the assay plate and plates we incubated for 5 min at room temperature.
# 5. Signal was measured as median relative luminescence units on a ViewLux (PerkinElmer) multiplate reader.
# [1] Heske CM, Davis MI, Baumgart JT, Wilson K, Gormally MV, Chen L, Zhang X, Ceribelli M, Duveau DY, Guha R, Ferrer M, Arnaldez FI, Ji J, Tran HL, Zhang Y, Mendoza A, Helman LJ, Thomas CJ. Matrix Screen Identifies Synergistic Combination of PARP Inhibitors and Nicotinamide Phosphoribosyltransferase (NAMPT) Inhibitors in Ewing Sarcoma. Clin Cancer Res. 2017 Dec 1;23(23):7301-7311. doi: 10.1158/1078-0432.CCR-17-1121. Epub 2017 Sep 12. PMID: 28899971; PMCID: PMC6636827.
# Potency is read from the fitted curve at half-maximal effect.
Compound,Potency,viability (% of DMSO control)
CCS(=O)(=O)N1CC(CC#N)(n2cc(-c3ncnc4[nH]ccc34)cn2)C1,active: 16.6 µM,–
CC(C)Cn1cnc2c(N)nc3ccccc3c21,–,inactive: 106%
FC(F)(F)c1ccc(Nc2nc3ccc(Oc4ccnc(-c5ncc(C(F)(F)F)[nH]5)c4)cc3[nH]2)cc1,active: 18.7 µM,–
CN(C)CC(C)(C)CNc1nn2c(-c3ccccc3)nnc2cc1C1CCC1,"inconclusive: 2.64 µM [rising, partial curve]",–
C[C@H](NCc1ccc2c(c1)nc(NC(=O)c1ccc(-c3cn[nH]c3)s1)n2CCc1ccccc1)C(C)(C)C,active: 1.05 µM,–
NC(=O)N1c2ccccc2CC(=O)c2ccccc21,–,inactive: 121%
CC(C)(C)c1cnc(CSc2cnc(NC(=O)C3CCNCC3)s2)o1,active: 0.0935 µM,–
NC1(c2ccc(-c3nc4ccn5c(=O)[nH]nc5c4cc3-c3ccccc3)cc2)CCC1,–,inactive: 106%
CC(C)OC(=O)C1=CN(C(=O)c2ccc(F)c(F)c2)CC(C)(C)c2c1[nH]c1ccccc21,–,inactive: 117%
C[C@H](NC(=O)Cc1cc(F)cc(F)c1)C(=O)N[C@@H]1C(=O)N(C)c2ccccc2-c2ccccc21,"inconclusive: 33.2 µM [cytotoxic, single point]",–
CC(C)c1cc(C(C)C)c(CC(=O)NS(=O)(=O)Oc2c(C(C)C)cccc2C(C)C)c(C(C)C)c1,"inconclusive: 33.2 µM [cytotoxic, single point]",–
Cc1cnc(NC(=O)Nc2cc(Br)c(C)cc2OC[C@@H]2CNCCO2)cn1,active: 0.59 µM,–
C[C@](Cc1c[nH]c2ccccc12)(NC(=O)OC1C2CC3CC(C2)CC1C3)C(=O)NC[C@H](NC(=O)CCC(=O)O)c1ccccc1 (stereo not given in full),–,inactive: 124%
Cc1ccccc1C(OCCN(C)C)c1ccccc1 (stereo not given),–,inactive: 103%
CC(C)C[C@H](NC(=O)CNC(=O)c1cc(Cl)ccc1Cl)B(O)O,active: 0.0833 µM,–
Cc1cnc(-c2cnc(NCCNc3ccc(C#N)cn3)nc2-c2ccc(Cl)cc2Cl)[nH]1,"inconclusive: 18.7 µM [cytotoxic, partial curve]",–
Cc1cc(Nc2cc(NC(=O)c3c(Cl)cccc3Cl)ccn2)nc(N)n1,"inconclusive: 37.2 µM [cytotoxic, partial curve, poor fit]",–
CC(=O)NC(C)c1ccc(Oc2ccc(OC(C)C)cc2)cc1 (stereo not given),"inconclusive: 23.5 µM [cytotoxic, partial curve, poor fit]",–
CCCCOc1ccc(CC(=O)NO)cc1,"inconclusive: 26.4 µM [cytotoxic, single point]",–
COc1cc(C)c(Sc2cnc(NC(=O)c3ccc(CNC(C)C(C)(C)C)cc3)s2)cc1C(=O)N1CCN(C(C)=O)CC1 (stereo not given),active: 20.9 µM,–

Compound,Potency,viability (% of DMSO control)
COC(=O)C=CC(=O)OC,"inconclusive: 37.2 µM [cytotoxic, single point]",–
O=C(C=Cc1ccc(CN(CCO)CCc2c[nH]c3ccccc23)cc1)NO,active: 0.0743 µM,–
CCOc1cc2ncc(C#N)c(Nc3ccc(OCc4ccccn4)c(Cl)c3)c2cc1NC(=O)C=CCN(C)C,active: 2.35 µM,–
S=C(NCc1ccc2c(c1)OCO2)N1CCN(c2ncnc3c2oc2ccccc23)CC1,active: 27 µM,–
COc1ccc(C2=N[C@H](c3ccc(Cl)cc3)[C@H](c3ccc(Cl)cc3)N2C(=O)N2CCNC(=O)C2)c(OC(C)C)c1,"inconclusive: 29.6 µM [cytotoxic, single point]",–
CC(O)(C#Cc1ccc2c(c1)N(c1nc(N)ncc1Cl)CC2)c1nccs1 (stereo not given),"inconclusive: 23.5 µM [cytotoxic, partial curve]",–
COc1ccc(C=Cc2cc(OC)c(OC)c(OC)c2)cc1O,–,inactive: 29.8%
COc1cc(C(C)C)c2c(c1)S(=O)(=O)N(COc1cc(=O)n3cccc(OCCN4CCCCC4)c3n1)C2=O,"inconclusive: 18.7 µM [cytotoxic, partial curve]",–
Cn1c2ccccc2c2c3c(c4c5ccccc5n(CCC#N)c4c21)CNC3=O,active: 4.69 µM,–
Cc1c(CN2CCN(C(=O)C(C)C)CC2)sc2c(N3CCOCC3)nc(-c3cnc(N)nc3)nc12,active: 0.0833 µM,–
O=S(=O)(N=Cc1c(O)ccc2ccccc12)c1cccs1,"inconclusive: 0.0235 µM [rising, full curve, poor fit]",–
CCOC(=O)[C@@H](N)Cc1ccc(-c2cc(O[C@H](c3ccc(Cl)cc3-n3ccc(C)n3)C(F)(F)F)nc(N)n2)cc1,active: 23.5 µM,–
CS(=O)(=O)c1ccc(-c2cnc(N)c(C(=O)Nc3ccccc3)n2)cc1,active: 18.7 µM,–
CN(C)CCCN=c1c2ccccc2n(C)c2[nH]c(=O)n(C)c(=O)c12,"inconclusive: 18.7 µM [cytotoxic, partial curve, poor fit]",–
OCc1ccc(-c2ccc(-c3ccc(CO)s3)o2)s1,"inconclusive: 18.7 µM [cytotoxic, partial curve, poor fit]",–
CS(=O)(=O)c1cccc(CNc2nc(Nc3ccc4c(c3)CCC(=O)N4)ncc2C(F)(F)F)c1,"inconclusive: 37.2 µM [cytotoxic, single point]",–
C[C@@H]1CN(CC(=O)Nc2ccc3c(c2)Cc2cccc(-c4cc(=O)cc(N5CCOCC5)o4)c2S3)C[C@H](C)O1,active: 16.6 µM,–
CC1(C)CCC(c2ccc(Cl)cc2)=C(CN2CCN(c3ccc(C(=O)NS(=O)(=O)c4ccc(N[C@H](CCN5CCOCC5)CSc5ccccc5)c(S(=O)(=O)C(F)(F)F)c4)cc3)CC2)C1,"inconclusive: 29.6 µM [cytotoxic, single point]",–
CCCCCCCCc1ccc(CCC(N)(CO)CO)cc1,"inconclusive: 33.2 µM [cytotoxic, single point]",–
COc1cccc2c1C(=O)c1c(O)c3c(c(O)c1C2=O)C[C@@](O)(C(=O)CO)C[C@@H]3O[C@H]1C[C@H](N)[C@H](OC2CCCCO2)[C@H](C)O1 (stereo not given in full),active: 3.72 µM,–

# 2 compounds drawn at random from those above, as already listed:
Compound,Potency,viability (% of DMSO control)
Cc1c(CN2CCN(C(=O)C(C)C)CC2)sc2c(N3CCOCC3)nc(-c3cnc(N)nc3)nc12,active: 0.0833 µM,–
CC1(C)CCC(c2ccc(Cl)cc2)=C(CN2CCN(c3ccc(C(=O)NS(=O)(=O)c4ccc(N[C@H](CCN5CCOCC5)CSc5ccccc5)c(S(=O)(=O)C(F)(F)F)c4)cc3)CC2)C1,"inconclusive: 29.6 µM [cytotoxic, single point]",–
